Measured values taken from the supplement of paper PMC3741180, “A Novel High Throughput Biochemical Assay to Evaluate the HuR Protein-RNA Complex Formation” (PLoS ONE, 2013).
Some of the results follow. Most values lie within the scatter of the assay; repeated measurements hardly agree.

Chains of the proteins cited; added tags and fusions are not shown.
UniProt Q15717, whole entry: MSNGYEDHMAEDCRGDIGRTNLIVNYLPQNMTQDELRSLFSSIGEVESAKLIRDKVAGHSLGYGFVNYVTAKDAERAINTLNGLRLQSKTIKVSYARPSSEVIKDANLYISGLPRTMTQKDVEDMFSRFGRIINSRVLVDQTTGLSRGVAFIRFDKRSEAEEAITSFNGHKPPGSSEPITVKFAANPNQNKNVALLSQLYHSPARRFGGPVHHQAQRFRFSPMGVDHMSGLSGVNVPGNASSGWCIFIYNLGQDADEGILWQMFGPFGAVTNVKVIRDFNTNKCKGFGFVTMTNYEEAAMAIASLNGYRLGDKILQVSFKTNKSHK

The compounds below were run against HuR (ELAVL1) - TNFalpha ARE RNA complex (UniProt Q15717) (assay: AlphaScreen HuR-RNA complex signal Z-score relative to positive (Bi-TNF, DMSO) controls (Z-score (SD units of positive control)); higher = more complex signal). Settings: screen stage: primary screen; compound concentration: 25 nM.

Compound | AlphaScreen HuR-RNA complex signal Z-score
C#C[C@]1(O)CC[C@H]2[C@@H]3CCC4=Cc5oncc5C[C@]4(C)[C@H]3CC[C@@]21C | -4.76
O=C(Nc1ccc([N+](=O)[O-])cc1Cl)c1cc(Cl)ccc1O | 0.578
CCOc1ccc(Cc2nccc3cc(OCC)c(OCC)cc23)cc1OCC | 2.58
CC12CC3CC(C)(C1)CC(N)(C3)C2 | 0.412
CC(C)=CCc1c(O)cc2oc(C)cc(=O)c2c1O | 2.4
COc1ccc(-c2cc(=O)c3c(OC)c(OC)c(OC)c(OC)c3o2)cc1 | 0.835
CSCCC(N)C(=O)NC(CC(C)C)C(=O)NC(Cc1ccccc1)C(=O)O (centres undefined) | 0.887
CCC[C@@H]1C[C@@H](C(=O)N[C@@H]([C@H]2O[C@H](SC)[C@H](O)[C@@H](O)[C@H]2O)[C@@H](C)O)N(C)C1 | 3.46
C=C1C(N)CC2CC1C2(C)C (stereo not drawn) [3-AMINO-beta-PINENE] | 2.48
CN1CCCN=C1/C=C/c1cccs1 | 7.1
COc1ccc(-c2cc(=O)c3c(OC)c(OC)c(OC)c(OC)c3o2)cc1OC | 1.34
CCCCOc1ccc(C(=O)CCN2CCCCC2)cc1 | -2.84
COc1cccc(O)c1O | 0.803
C=C1C(=O)O[C@H]2[C@H]1CC/C(C)=C/CC[C@@]1(C)O[C@@H]21 | 1.46
COc1ccc(CCC(=O)c2c(O)cc(O[C@@H]3O[C@H](CO)[C@@H](O)[C@H](O)[C@H]3O[C@@H]3O[C@@H](C)[C@H](O)[C@@H](O)[C@H]3O)cc2O)cc1O | 1.52
CC(C)(C)CC(C)(C)c1ccc(OCCOCC[N+](C)(C)Cc2ccccc2)cc1 | 0.366
CC(C)(C)NC(=O)[C@H]1CC[C@H]2[C@@H]3CC[C@H]4NC(=O)C=C[C@]4(C)[C@H]3CC[C@]12C | 2.35
C=CC1=C(C)/C(=C/c2[nH]c(Cc3[nH]c(/C=C4\NC(=O)C(C)=C4C=C)c(C)c3CCC(=O)O)c(CCC(=O)O)c2C)NC1=O | 1.49
Nc1nc(N)c2nc(-c3ccccc3)c(N)nc2n1 | -0.891
C=C1CC[C@H](O)C/C1=C/C=C1\CCC[C@]2(C)[C@@H]([C@H](C)/C=C/[C@H](C)C(C)C)CC[C@@H]12 | 1.15
CC(C)=CCCC1(C)C=Cc2c(O)c3c(c(CC=C(C)C)c2O1)OC12C(=CCCC1C(C)(C)O[C@@]2(C/C=C(\C)C(=O)O)C(=O)O)C3=O (some centres undefined) | 1.19
CC1=C(/C=C/C(C)=C/C=C/C(C)=C/C=C/C=C(C)/C=C/C=C(C)/C=C/C(=O)[C@]2(C)C[C@@H](O)CC2(C)C)C(C)(C)C[C@H](O)C1 | 1.13
C[C@H]1[C@H]2CC[C@H]3[C@@H]4CC=C5C[C@@H](N(C)C)CC[C@]5(C)[C@H]4CC[C@]23CN1C | 0.922
C[N+](C)(C)C[C@H](O)CC(=O)[O-] | 0.81
CC(C)=CCC[C@@H](C)[C@@H]1CC[C@]2(C)C3=C(CC[C@@]12C)[C@@]1(C)CC[C@H](O)C(C)(C)[C@@H]1CC3 | -3.12
CC(C)NCC(O)COc1cccc2[nH]ccc12 (centres undefined) | 1.04
OC(CCN1CCCC1)(c1ccccc1)C1CCCCC1 (centres undefined) | 7.17

Reformatted comma-delimited: part of the list above.
Compound,AlphaScreen HuR-RNA complex signal Z-score
COc1cccc(O)c1O,0.803
C=C1C(=O)O[C@H]2[C@H]1CC/C(C)=C/CC[C@@]1(C)O[C@@H]21,1.46

Next part:

Compound | AlphaScreen HuR-RNA complex signal Z-score
CC(=O)/C(=C\c1ccccc1)CC(=O)O | 1.88
CC(CN(C)C)CN1c2ccccc2CCc2ccccc21 (centres undefined) | 1.05
COC(=O)[C@@]1(C)CCC[C@]2(C)c3ccc(O)c(C(C)C)c3CCC12 (some centres undefined) | 0.744
O=C(O)CCCCCCCC(O)C(O)CCCCCCO (centres undefined) | 0.743
CN(Cc1cc(Br)cc(Br)c1N)C1CCCCC1 | 1.41
C[C@H](CS)C(=O)N1CCC[C@H]1C(=O)O | -0.272
CC1(C)O[C@@H]2C[C@H]3[C@@H]4C[C@H](F)C5=CC(=O)C=C[C@]5(C)[C@H]4[C@@H](O)C[C@]3(C)[C@]2(C(=O)CO)O1 | 1.46
CC(C)c1c(O)ccc2c1CCC1[C@@](C)(C=O)CCC[C@]21C (some centres undefined) | 0.658
C/C=C(\C)C(=O)O[C@@H]1c2c(ccc3ccc(=O)oc23)OC(C)(C)[C@@H]1OC(C)=O | 0.698
CC(C)CCC[C@@H](C)[C@H]1CC[C@H]2[C@@H]3C[C@@H](O)[C@@]4(O)C[C@@H](O)CC[C@]4(C)[C@H]3CC[C@]12C [CHOLESTAN-3beta,5alpha,6beta-TRIOL] | 2.91
C[C@]12CCC(=O)C=C1CC[C@@H]1[C@@H]2[C@@H](O)C[C@@]2(C)[C@H]1CC[C@]2(O)C(=O)COP(=O)(O)O | -1.79
CC(=O)OCC(=O)[C@@]1(O)CC[C@H]2[C@@H]3CCC4=CC(=O)C=C[C@]4(C)[C@H]3[C@@H](O)C[C@@]21C | 3.93
COc1ccc(Cl)cc1C(=O)NCCc1ccc(S(=O)(=O)NC(=O)NC2CCCCC2)cc1 | 2.86
CC(C)=CCC1=C(O)C(=O)c2ccccc2C1=O | 2.02
CCCCCCNC(=O)n1cc(F)c(=O)[nH]c1=O | 2.53
NCCC(=O)N[C@@H](Cc1c[nH]cn1)C(=O)O | 1.74
CN(C(=O)CN(CCO)CC(=O)N(C)C(C)(C)Cc1ccccc1)C(C)(C)Cc1ccccc1 | 0.346
CC1(C)O[C@@H]2C[C@H]3[C@@H]4C[C@H](F)C5=CC(=O)C=C[C@]5(C)[C@@]4(F)[C@@H](O)C[C@]3(C)[C@]2(C(=O)CO)O1 | -1.32
CC(C)=CCc1c2c(c3occ(-c4ccc(O)c(O)c4)c(=O)c3c1O)C=CC(C)(C)O2 | 0.875
COc1cc(NS(=O)(=O)c2ccc(N)cc2)ncn1 | 1.66
Cc1cc(C)nc(NS(=O)(=O)c2ccc(N)cc2)n1 | 15.1
O=C(O)C1=CC(=C(c2ccc(O)c(C(=O)O)c2)c2ccc(O)c(C(=O)O)c2)C=CC1=O | 1.76
C[C@@H]1C/C=C/C=C/C=C/C=C/[C@H](O[C@@H]2O[C@H](C)[C@@H](O)[C@H](N)[C@@H]2O)C[C@@H]2O[C@](O)(C[C@@H](O)C[C@H]3O[C@@H]3/C=C/C(=O)O1)C[C@H](O)[C@H]2C(=O)O | 0.9
NC[C@H]1O[C@H](O[C@H]2[C@H](O)[C@@H](O[C@H]3O[C@H](CO)[C@@H](O)[C@H](N)[C@H]3O)[C@H](N)C[C@@H]2N)[C@H](N)C[C@@H]1O | 15.1
CCOC(=O)Nc1nc2ccccc2[nH]1 | 1.38
COc1ccc(-c2oc3cc(OC)c(OC)c(OC)c3c(=O)c2OC)cc1OC | 2.42
Cc1cc(O)c2c(c1O)C(=O)c1c(O)cc(C)c(O)c1C2=O | 2.11

Looked up one by one from the list above:
Compound | AlphaScreen HuR-RNA complex signal Z-score
C=C1CC[C@H](O)C/C1=C/C=C1\CCC[C@]2(C)[C@@H]([C@H](C)/C=C/[C@H](C)C(C)C)CC[C@@H]12 | 1.15
CN1CCCN=C1/C=C/c1cccs1 | 7.1
